Data on 2 molecules can be found in publication PMC6042199, “Inhibitory effects against α-glucosidase and α-amylase of the flavonoids-rich extract from Scutellaria baicalensis shoots and interpretation of structure–activity relationship of its eight flavonoids by a refined assign-score method” (Chemistry Central Journal, 2018).

The series deals with yeast α-glucosidase from Saccharomyces cerevisiae. The series is described as follows: α-glucosidase inhibitory effect (pNPG, AUC of absorbance at 405 nm). Conditions: Contribution = [Ei/E0] × C × 100. Format: biochemical. The procedure:
All solvents (analytical grade) were bought from Beijing Chemical Factory, and purified water was from a mili-Q system (Millipore, Billerica, MA).
α-Glucosidase inhibitory effect was assayed as reported by Zhang et al.. […] Then, 30 μL pNPG solution (2 mM pNPG in 0.1 mM phosphate buffer) was added quickly to initiate the enzyme reaction. Absorbance was monitored at 405 nm every 15 min for 2 h using a microplate reader (Tecan infinite 200, Swiss).

The structures appear in SMILES notation.

`O=c1cc(-c2ccccc2)oc2cc(O)c(O)c(O)c12` [Baicalein, baicalein]: the “Contribution to the overall enzyme inhibitory effect of the extract, α-glucosidase” value came to 23.29 ± 1.03%.

With `O=C(O)[C@H]1O[C@@H](Oc2cc3oc(-c4ccc(O)cc4)cc(=O)c3c(O)c2O)[C@H](O)[C@@H](O)[C@@H]1O` [Scutellarin, scutellarin], the “Contribution to the overall enzyme inhibitory effect of the extract, α-glucosidase” value came out at 14.74 ± 0.27%.
